PubChem BioAssay AID652259, Drosophila RNAi Screening Center – 2013

- Purpose: 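Genome-wide hunt for genes that control Wingless pathway activity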 (primary screen)
- System: Drosophila clone 8 imaginal disc epithelial cells
- Knock-down reagent: long dsRNA against Drosophila genes
- Challenge: pathway stimulated by co-transfected Wingless expression plasmid
- Measured: 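Dual luciferase reads per well after Wingless plasmid stimulation: reporter firefly light and Renilla control light; activity is firefly divided by Renilla, a ratio not deposited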
- Reading the numbers: firefly reporter light: higher = more Wg reporter light, before normalisation; Renilla control light: higher = more transfected or surviving cells
- Rule for the call: 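a knock-down is a candidate when at least two out of four statistical tests show it departing from its plate mean; one test alone signals a weak candidate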
- Calls: active = candidate regulator (raises or lowers reporter); inactive = not a candidate
In all, the deposit lists about 22,000 reagents; below is a random part of those that have a named target and a result. Over the whole deposit, 233 (1.1%) are marked active. 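Light values are raw, unnormalised plate reads; the ratio scores behind the reporter calls were not deposited.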 A plus sign joins genes that one reagent is predicted to hit. Reagent sequences are not shown. The record does not give: the amount of reagent, the time to read-out, the dose of the treatment.

gene	dsRNA	reporter change call, replicate 1	firefly reporter light, replicate 1	firefly reporter light, replicate 2	Renilla control light, replicate 1	Renilla control light, replicate 2	activity call
Rcd7	DRSC10100		13168		5082		inactive
Dfd	DRSC12593		16811		5168		inactive
CG12490	DRSC04123		3163	4918	742	2043	inactive
CG17030	DRSC08503		1072	6131	1037	2592	inactive
hpRNA:CR18854	DRSC02702		2003	6880	731	2544	inactive
PH4alphaNE2	DRSC16544		4877		2794		inactive
CG8028	DRSC20075		20357		11840		inactive
CG1368	DRSC19537		3350	7522	1052	2723	inactive
CG43736	DRSC18370	Wg reporter activity raised	79395		5744		active
CG43736	DRSC18371		31433		11605		inactive
Acp33A + CG15841 (retired record)	DRSC01859		2166	8696	803	4326	inactive
tctn + B9d2	DRSC03160		2403	6586	888	2601	inactive
Stacl	DRSC05553	Wg reporter activity raised	36683		30274		inactive
Stacl	DRSC06260		9085		2662		inactive
Stacl	DRSC06261		5595		2071		inactive
Stacl	DRSC06777		6786		2163		inactive
Stacl	DRSC07091	Wg reporter activity raised	24052		4915		active
gammaTub37C	DRSC03535		8544		2205		inactive
Golgin104	DRSC10459		3462		1528		inactive
mGluR	DRSC17215		13753		9596		inactive
CG30010	DRSC05193		14795		7316		inactive
CG13559	DRSC04197		2678	6776	861	2211	inactive
CG14879	DRSC15003		17491		4753		inactive
Rcd6	DRSC06054		12633		4034		inactive
CG10598	DRSC19358		20997		10290		inactive
CNMaR	DRSC08992		3513		810		inactive
CNMaR	DRSC10224		5754		2764		inactive
CG13004	DRSC19523		26947		9472		inactive
CG3618	DRSC11746		3357		1488		inactive
CG8736	DRSC07255		3481	11052	1475	4266	inactive
CG14625	DRSC18633		12117		7991		inactive
CG4815	DRSC15653		6071		3064		inactive
CG12942	DRSC06253		11014		2759		inactive
UGP + PGRP-LF	DRSC10418		6858		3520		inactive
Sarm	DRSC08906		3899		397		inactive
Sarm	DRSC08907	Wg reporter activity lowered	3056		523		inactive
Sarm	DRSC10038		1912	7747	1591	2995	inactive
Sarm	DRSC10039		1131	5592	907	2380	inactive
Sarm	DRSC10927		953	7216	932	2652	inactive
Sarm	DRSC10929		4008		2256		inactive
SkpC	DRSC20375		25920		14829		inactive
mRpS28	DRSC06939		5660		2086		inactive
ftz-f1	DRSC11347		9265		2464		inactive
CG15160	DRSC02461		4774	10499	912	4535	inactive
CG4968	DRSC02794		14160		5563		inactive
Khc-73	DRSC07449		16032		4265		inactive
CG2004	DRSC18200		16999		10854		inactive
CG30031 + deltaTry + gammaTry	DRSC07622		7122		3762		inactive
CG14689	DRSC14912		12000		3400		inactive
BomBc1	DRSC06501		7856		2469		inactive
CG31380	DRSC15688		17142		17508		inactive
CG1889 + CG43386	DRSC17979		33926		10624		inactive
chif	DRSC03508		8656		2522		inactive
Osi4	DRSC12134		15184		3205		inactive
CG30413	DRSC04001		12905		5844		inactive
Amnionless	DRSC00317		2592	7849	918	3161	inactive
Atg5	DRSC18112		2267	7546	976	2384	inactive
CG15011	DRSC08464		2643		1496		inactive
CG31102	DRSC14260		25469		20553		inactive
CG11664	DRSC18650		15696		14337		inactive
Cpsf5	DRSC10374		4464		2064		inactive
CG15373	DRSC19663		23042		10236		inactive
CG11417	DRSC18581		1187	4006	701	1224	inactive
CG9555	DRSC03264		2148	5585	658	2515	inactive
l(2)k05911	DRSC02523		4502		1336		inactive
CG1275	DRSC08294		18039		4172		inactive
RpL8	DRSC08532		5236		1504		inactive
RpL8	DRSC08695		5360		1645		inactive
E(spl)m7-HLH	DRSC16696		17232		15482		inactive
Eip75B	DRSC09526		2728		1253		inactive
Eip75B	DRSC11161		6406		968		inactive
CG12998	DRSC19518		23329		10123		inactive
CG6867	DRSC20013		21409	6.62e5	14257	3.34e5	inactive
CG31326	DRSC16532		10532		2252		inactive
SelR	DRSC16071		19168		4795		inactive
CG3408	DRSC10360		5072		2608		inactive
pst	DRSC11003		2624		956		inactive
l(1)G0289	DRSC18215		2992	5408	1179	2096	inactive
CG12091	DRSC08251		3842		1724		inactive
Secp43	DRSC00454		1488	6683	800	3032	inactive
CG4988	DRSC02800		3525	4791	1361	1808	inactive
Taf2	DRSC11298	Wg reporter activity raised	16275		1622		active
CG14135	DRSC10140		6295		3761		inactive
dpr4	DRSC14531		19225		4608		inactive
dpr4	DRSC14929		23570		4866		inactive
CG7544	DRSC07023		5208		1539		inactive
Fgop2	DRSC02016		10049		3592		inactive
CG9662	DRSC00723		4528	6999	1932	1257	inactive
CG6290	DRSC19979		4156	9786	1207	3754	inactive
CG4716	DRSC06884		13824		4692		inactive
sad	DRSC16630		17945		4344		inactive
CG8004	DRSC10947		5372		2384		inactive
CG15891 + CG15892	DRSC18095		5418	16451	1026	2464	inactive
CG15891 + CG15892	DRSC18096		16749		9488		inactive

Reformatted: entries from further up.
gene,dsRNA,"reporter change call, replicate 1","firefly reporter light, replicate 1","firefly reporter light, replicate 2","Renilla control light, replicate 1","Renilla control light, replicate 2",activity call
Atg5,DRSC18112,,2267,7546,976,2384,inactive
CG15011,DRSC08464,,2643,,1496,,inactive
CG31102,DRSC14260,,25469,,20553,,inactive
CG11664,DRSC18650,,15696,,14337,,inactive
Cpsf5,DRSC10374,,4464,,2064,,inactive
CG15373,DRSC19663,,23042,,10236,,inactive
CG11417,DRSC18581,,1187,4006,701,1224,inactive
CG9555,DRSC03264,,2148,5585,658,2515,inactive
l(2)k05911,DRSC02523,,4502,,1336,,inactive
CG1275,DRSC08294,,18039,,4172,,inactive
RpL8,DRSC08532,,5236,,1504,,inactive
RpL8,DRSC08695,,5360,,1645,,inactive
E(spl)m7-HLH,DRSC16696,,17232,,15482,,inactive
